Measurements as given in article PMC8280061, “A novel ligand of the translationally controlled tumor protein (TCTP) identified by virtual drug screening for cancer differentiation therapy” (Investigational New Drugs, 2021).
No constants are given. Whether binding was seen depends on the method and setting. Binding seen in cells or lysates may run through a third protein. Some entries that bind do so weakly or less than the wild type.

Target: T1, translationally controlled tumor protein (TCTP) (human (endogenous in MOLT-4)) (UniProt P13693)
T1 sequence: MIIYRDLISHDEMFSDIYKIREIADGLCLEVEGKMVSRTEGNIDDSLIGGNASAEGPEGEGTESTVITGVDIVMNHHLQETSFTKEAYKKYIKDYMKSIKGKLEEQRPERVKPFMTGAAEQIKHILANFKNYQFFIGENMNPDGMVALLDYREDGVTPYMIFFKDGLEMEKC
Experiment: co-IP; TCTP polyclonal antibody coupled to Dynabeads M-270 Epoxy; lysates of MOLT-4 cells treated 24 h with DMSO, ZINC10157406 (IC50, 2 x IC50) or artesunate; detergent lysis, 0.5% DTT in extraction buffer; Western blot for TCTP and p53

For “tumor suppressor p53 (from UniProt P04637 1-393)”, which binding is on record?
The binding was “binds”.
